For this assay, the target named is DDR1 on HT-29 cells (human) (UniProt Q08345). Nature of the assay: confocal immunofluorescence, HT-29 cells, 4℃ 40 min.

The chains behind the UniProt entries cited, without tags or fusion partners. Residues count along the entry.
UniProt Q08345, residues 19-913: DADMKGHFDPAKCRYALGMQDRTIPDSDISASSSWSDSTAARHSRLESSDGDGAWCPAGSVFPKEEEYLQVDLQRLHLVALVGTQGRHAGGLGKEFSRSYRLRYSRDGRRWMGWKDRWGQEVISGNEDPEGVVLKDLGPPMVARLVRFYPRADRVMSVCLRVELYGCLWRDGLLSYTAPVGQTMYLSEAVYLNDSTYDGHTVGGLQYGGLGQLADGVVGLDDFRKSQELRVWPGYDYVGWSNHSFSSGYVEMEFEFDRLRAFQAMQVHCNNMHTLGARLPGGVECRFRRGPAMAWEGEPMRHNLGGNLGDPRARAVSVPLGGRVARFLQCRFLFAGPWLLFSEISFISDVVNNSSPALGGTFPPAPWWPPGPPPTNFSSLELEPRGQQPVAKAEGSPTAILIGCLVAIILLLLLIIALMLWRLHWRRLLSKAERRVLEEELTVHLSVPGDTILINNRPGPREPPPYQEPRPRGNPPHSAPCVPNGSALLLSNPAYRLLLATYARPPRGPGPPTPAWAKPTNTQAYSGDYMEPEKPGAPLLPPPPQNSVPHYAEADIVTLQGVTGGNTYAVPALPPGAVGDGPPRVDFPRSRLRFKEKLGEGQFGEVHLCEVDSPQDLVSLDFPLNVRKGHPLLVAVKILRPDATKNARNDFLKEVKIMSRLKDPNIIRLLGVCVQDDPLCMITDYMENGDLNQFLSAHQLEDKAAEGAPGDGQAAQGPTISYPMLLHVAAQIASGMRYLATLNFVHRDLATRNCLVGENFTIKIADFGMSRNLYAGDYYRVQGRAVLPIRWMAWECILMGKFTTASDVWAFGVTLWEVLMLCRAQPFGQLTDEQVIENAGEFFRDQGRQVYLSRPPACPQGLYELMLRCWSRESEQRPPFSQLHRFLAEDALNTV

No constants are given. Whether binding was seen depends on the method and setting. Some results given as binding are weak or reduced against the parent protein; the word gives no strength.

B1: Tytug抗体 (antibody, IgG1, V domains shown)
VH: QVQLQQPGAELVRPGSSVRLSCKASGYSFTSYWMNWVKQRPGQGLEWIGMIHPSDSKTRLDQKFKDKATLTVDKSSSTAYMQLSSPTSEDSAVYYCAREGTYYYAMDFWGQGTSVTVSS
VL: DVLMTQTPLSLPVSLGDQASISCRSSQTIVHSNGNTYLEWYLQKPGQSPKLLIYKVSNRFSGVPDRFSGSGSGTDFTLKISRVEAEDLGVYYCFQGSHDPYTFGGGTKLEIK
On to B1, for which the binding result was “binds”.

(Values after patent CN116023497A.)
